Measured values taken from paper PMC3320614.
No constants are given. Whether binding was seen depends on the method and setting. For some assays here: In cells and extracts the contact can be indirect. Some entries that bind do so weakly or less than the wild type.

The chains behind the UniProt entries cited, without tags or fusion partners. Where a name states a change or a piece, a line headed by the entry shows the natural chain unless it says otherwise. Residues count along the entry.
UniProt O92506: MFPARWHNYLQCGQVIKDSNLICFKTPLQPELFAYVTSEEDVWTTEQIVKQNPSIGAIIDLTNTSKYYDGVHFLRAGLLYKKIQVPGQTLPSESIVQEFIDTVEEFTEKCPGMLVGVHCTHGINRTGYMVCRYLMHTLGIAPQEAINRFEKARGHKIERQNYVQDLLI
N-terminal 90 amino acid residues of BmNPV PTP, yeast two-hybrid fusion (Bombyx mori nucleopolyhedrovirus (BmNPV)): residues 1-90 of O92506
UniProt O92377: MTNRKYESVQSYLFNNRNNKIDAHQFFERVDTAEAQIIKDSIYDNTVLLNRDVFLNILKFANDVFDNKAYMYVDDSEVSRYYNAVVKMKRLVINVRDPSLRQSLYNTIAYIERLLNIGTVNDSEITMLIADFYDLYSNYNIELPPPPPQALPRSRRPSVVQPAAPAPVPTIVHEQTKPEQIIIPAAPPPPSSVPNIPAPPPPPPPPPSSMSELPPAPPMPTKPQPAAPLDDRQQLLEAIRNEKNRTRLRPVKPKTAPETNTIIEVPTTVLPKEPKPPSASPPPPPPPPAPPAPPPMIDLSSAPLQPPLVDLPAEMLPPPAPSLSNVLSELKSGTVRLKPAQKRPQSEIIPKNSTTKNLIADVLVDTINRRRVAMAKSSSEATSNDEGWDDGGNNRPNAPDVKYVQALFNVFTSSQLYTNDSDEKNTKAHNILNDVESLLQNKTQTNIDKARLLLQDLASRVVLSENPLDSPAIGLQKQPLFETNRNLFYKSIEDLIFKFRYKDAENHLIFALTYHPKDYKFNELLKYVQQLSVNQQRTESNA

Legend:
[1] = molecular target: FLAG-tagged PTP expressed by BmPTPD-wt under the authentic ptp promoter (Bombyx mori nucleopolyhedrovirus (BmNPV)) (UniProt O92506); assay: co-IP; extracts of BmN cells infected with BmPTPD-wt (MOI 5, 72 h p.i.) immunoprecipitated with anti-FLAG antibody; western blot with anti-ORF1629 antibody
[2] = molecular target: N-terminal 90 amino acid residues of BmNPV PTP, yeast two-hybrid fusion (Bombyx mori nucleopolyhedrovirus (BmNPV)) (UniProt O92506); assay: two-hybrid; further analysis in yeast with regions of ORF1629 and of PTP; X-gal screening assay

With “ORF1629 in BmPTPD-wt-infected BmN cells (from UniProt O92377 1-542)” as the substance, how does the binding [1] read?
Its binding is “binds”.

With “ORF1629 of BmNPV, yeast two-hybrid fusion used to map the ORF1629-interacting domains of PTP (from UniProt O92377 1-542)” as the substance, how does the binding [2] read?
The binding was “no binding”.
